In PubChem BioAssay AID504834 (National Center for Advancing Translational Sciences (NCATS), 2011):
About 22,000 (6.9%) of roughly 320,000 compounds were called active. The inconclusive results got no clear call from the source; some entries with a clear call stand among them for comparison. Calls come from the whole dose curve; as a rule, active = well fitted inhibition curve with a large enough effect; inconclusive = small, poorly fitted or top-dose-only effect, or another doubt; inactive = no such curve, though single readings can be large or run the other way. Potencies of inconclusive entries are doubtful fits and often do not repeat.

assay: Primary qHTS for delayed death inhibitors of the malarial parasite plastid, 96 hour incubation; settings: P. falciparum luciferase reporter growth; series mostly up to 28.7 µM; activity change, negative = inhibition: at the top concentration
In short: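 P. falciparum expressing integrated firefly luciferase, in erythrocytes at 2% hematocrit, 0.05% parasitemia, incubated with compounds 96 h at 37 C, 5% CO2. Growth inhibition read as loss of luminescence; two-generation exposure targets delayed-death apicoplast inhibitors.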
% is set by controls: 0 for no effect and ±100 for the full control effect; potency is the fitted concentration of half-maximal effect.

With `COC1CCCN(C(=O)c2cccc(OC3CCN(S(C)(=O)=O)CC3)c2)C1` (stereo not given) as the compound, how does the Potency read?
Its Potency is inconclusive: 18.5 µM [inhibitor, single point].

Which Potency does the source give for `C[C@H](c1ccccc1)n1nnc(COCc2ccccc2)c1C#CCOCc1ccccc1` here?
The Potency was inconclusive: 18.5 µM [inhibitor, single point].

Which Potency does the source give for `COc1cccc(NC(=O)c2ccc(N3C(=O)C4CC=C(C)CC4C3=O)cc2)c1` (stereo not given) here?
Its Potency is active: 1.47 µM.

Which Potency does the source give for `Cc1cc(-c2nnco2)c(C)n1-c1ccccc1` here?
Its Potency is inconclusive: 0.0037 µM [inhibitor, full curve, poor fit].

With `O=c1[nH]cnc2cc(Cl)ccc12` as the compound, how does the Potency read?
Its Potency is inconclusive: 3.7 µM [inhibitor, single point].

Which “activity change, negative = inhibition” value does the source give for `CCOc1ccc(CCN2C(=O)c3ccc(C(=O)O)cc3C2=O)cc1OCC` here?
The value was inactive: 62%.

For `CCCS(=O)(=O)N1CCN(S(=O)(=O)c2ccccc2)CC1`, which Potency is on record?
The Potency was inconclusive: 11.7 µM [inhibitor, single point].

With `COc1ccc(OC)c(NC(=O)CSc2nnc(-c3ccco3)o2)c1` as the compound, how does the “activity change, negative = inhibition” value read?
Its value is inactive: -15.1%.

With `COC(=O)c1cc2c(s1)c1cnn(Cc3ccccc3F)c(=O)c1n2C` as the compound, how does the Potency read?
Its Potency is inconclusive: 0.37 µM [activator, full curve, poor fit].

For `Cc1ccc(C(=O)OCC(=O)c2c[nH]c3ccccc23)cc1NC(=O)c1ccco1`, which Potency is on record?
Its Potency is inconclusive: 13.1 µM [inhibitor, single point].

With `CSc1cccc(NC(=O)OC2CCCCCCCCCCC2)c1` as the compound, how does the Potency read?
The Potency was inconclusive: 18.5 µM [inhibitor, single point].

Which Potency does the source give for `CCCn1c(N)c(C(=O)CSc2ncnc3sccc23)c(=O)n(C)c1=O` here?
The Potency was inconclusive: 7.38 µM [inhibitor, partial curve, poor fit].

Which Potency does the source give for `CCn1nc(C(=O)Nc2cccc3ccccc23)c(Cl)c1Cl` here?
Its Potency is inconclusive: 0.657 µM [inhibitor, full curve, poor fit].

Which “activity change, negative = inhibition” value does the source give for `O=C(N/N=C\C=C\c1ccco1)c1cncc(Br)c1` here?
Its value is inactive: 10.9%.

With `CN1CCN(NC(=O)c2cc(S(=O)(=O)Nc3ccc(Cl)cc3)ccc2Cl)CC1` as the compound, how does the “activity change, negative = inhibition” value read?
The value was inactive: 9.79%.

Which Potency does the source give for `Fc1ccccc1Oc1nc(-c2ccncc2)nc2ccccc12` here?
The Potency was active: 3.29 µM.

For `CCOC(=O)c1cccc(NC(=O)CSc2nnc(-c3ccoc3C)n2CC)c1`, which Potency is on record?
The Potency was active: 13.1 µM.

For `O=C(O)c1cc(S(=O)(=O)NC2CCCc3ccccc32)ccc1O` (stereo not given), which “activity change, negative = inhibition” value is on record?
Its value is inactive: 5.45%.

With `CCc1noc(C)c1C(=O)N1CCOCC1` as the compound, how does the Potency read?
Its Potency is inconclusive: 10.4 µM [inhibitor, single point].

For `COCCCC1CCN(Cc2cn[nH]c2-c2cc(OC)c(OC)c(OC)c2)CC1`, which Potency is on record?
Its Potency is inconclusive: 9.28 µM [inhibitor, single point].

With `Cn1nnnc1SCc1ccc(C(=O)Nc2ccc(Br)cc2)cc1` as the compound, how does the “activity change, negative = inhibition” value read?
Its value is inactive: -3.31%.

For `Cc1ccc(OCC(=O)Nc2ccc3c(c2)CCC3)c([N+](=O)[O-])n1`, which “activity change, negative = inhibition” value is on record?
Its value is inactive: -0.436%.

With `Cc1ccc(S(=O)(=O)CC(CN2CCCCC2)N2CCCCC2)cc1` (stereo not given) as the compound, how does the Potency read?
The Potency was inconclusive: 9.28 µM [inhibitor, partial curve, poor fit].

Which Potency does the source give for `COc1ccccc1CN1CC(C(=O)NCCc2ncccc2C)CCC1=O` (stereo not given) here?
Its Potency is inconclusive: 10.4 µM [inhibitor, partial curve, poor fit].

With `CNC(=S)NNC(=O)c1ccc(C(C)(C)C)cc1` as the compound, how does the “activity change, negative = inhibition” value read?
The value was inactive: 33.2%.

With `CCOC(=O)[C@H]1[C@H]2COc3ccc(C)cc3[C@@H]2N2C(=O)c3ccccc3NC(=O)[C@@]12C` as the compound, how does the Potency read?
The Potency was inconclusive: 18.5 µM [inhibitor, single point].

For `O=C(Nc1ccc(S(=O)(=O)N2CCOCC2)cc1)c1ccccc1`, which “activity change, negative = inhibition” value is on record?
Its value is inactive: -13.8%.

With `COC(=O)c1ccccc1NC(=O)c1ccc2c(c1)OCCO2` as the compound, how does the Potency read?
Its Potency is inconclusive: 11.7 µM [inhibitor, single point].

With `OCC[C@H]1C[C@H](O)[C@@H](O)[C@@]2(Cc3ccccc3CO2)O1` as the compound, how does the Potency read?
Its Potency is inconclusive: 9.28 µM [inhibitor, single point].

Which Potency does the source give for `O=C(c1ccc(-n2cnnn2)cc1)N1CCN(C(c2ccccc2)c2ccccc2)CC1` here?
The Potency was active: 4.65 µM.

With `CCC(=O)N1CCc2cc(S(=O)(=O)CCC(=O)Nc3ccc(OC)cc3)ccc21` as the compound, how does the Potency read?
Its Potency is inconclusive: 18.5 µM [inhibitor, single point].

Which “activity change, negative = inhibition” value does the source give for `CCc1ccc(NC(=O)C(NS(=O)(=O)c2cccc3nsnc23)c2ccccc2)cc1` (stereo not given) here?
Its value is inactive: -5.96%.

Which Potency does the source give for `CCOC(=O)c1c(NC(=O)C(Sc2ccccc2)c2ccccc2)sc(C(N)=O)c1C` (stereo not given) here?
Its Potency is active: 9.28 µM.

Which Potency does the source give for `Cn1ncc([N+](=O)[O-])c1C(=O)N1CCCCCC1` here?
The Potency was inconclusive: 0.0828 µM [inhibitor, partial curve, poor fit].

For `C#CCOc1ccc(/C=C2/C(=O)ON=C2C)cc1OCC`, which “activity change, negative = inhibition” value is on record?
Its value is inactive: -7.81%.

Which Potency does the source give for `CCCN(CC1CC1)C(=S)NC(=O)c1ccccc1Br` here?
The Potency was inconclusive: 18.5 µM [inhibitor, single point].

With `COc1ccc(C2CC(C(F)(F)F)n3nc(C(=O)NCc4cn(C)nc4C)c(Cl)c3N2)cc1` (stereo not given) as the compound, how does the Potency read?
The Potency was inconclusive: 9.28 µM [inhibitor, partial curve, poor fit].

With `COc1ccc(CCNC(=O)c2ccc(N(C)S(=O)(=O)c3ccccc3)cc2)cc1` as the compound, how does the Potency read?
Its Potency is inconclusive: 18.5 µM [inhibitor, single point].

For `Cn1nc(-c2ccccc2)c(CSc2ccccc2)c1Cl`, which Potency is on record?
Its Potency is active: 9.28 µM.

For `CC(C)C(=O)Nc1ccc2oc(-c3cc(F)c(F)cc3Cl)nc2c1`, which Potency is on record?
The Potency was inconclusive: 18.5 µM [inhibitor, single point].

For `Cc1ccc(C(=O)N/C(=C\c2ccc(-c3ccccc3[N+](=O)[O-])o2)C(=O)NCCN(C)C)cc1`, which Potency is on record?
The Potency was inconclusive: 3.7 µM [inhibitor, single point].

Which “activity change, negative = inhibition” value does the source give for `CC1(C(=O)CSc2n[nH]c(-c3ccccc3Cl)n2)CCC(=O)O1` (stereo not given) here?
The value was inactive: 0%.

Which Potency does the source give for `CCOCc1c(C(=O)N2CCN(CC(=O)Nc3ccc(F)cc3)CC2)oc2ccccc12` here?
Its Potency is inconclusive: 18.5 µM [inhibitor, single point].

Which “activity change, negative = inhibition” value does the source give for `Cc1csc(NC(=O)CSc2nc(C(C)C)nc3ccccc23)n1` here?
The value was inactive: -1.96%.

With `COC(=O)c1c(NC(=O)c2ccccc2)sc2c1CC(C)(C)OC2` as the compound, how does the Potency read?
Its Potency is inconclusive: 11.7 µM [inhibitor, partial curve, poor fit].

With `CCN(CC)CC#Cc1ccc(C)cc1` as the compound, how does the “activity change, negative = inhibition” value read?
Its value is inactive: 20.1%.

Which “activity change, negative = inhibition” value does the source give for `COCc1cc(=O)n2[nH]c(-c3cccc(Br)c3)cc2n1` here?
The value was inactive: -1.35%.

Which Potency does the source give for `COc1cccc(CNC(=S)Nc2cccc(Cl)c2C)c1` here?
The Potency was inconclusive: 18.5 µM [inhibitor, single point].

Which Potency does the source give for `COC(=O)c1ccccc1NC(=S)NC(=O)c1ccc2c(c1)OCO2` here?
Its Potency is inconclusive: 7.38 µM [inhibitor, partial curve, poor fit].

Which Potency does the source give for `CCCNC(=O)c1cn(CC)c2cc(N3CCN(C)CC3)c(F)cc2c1=O` here?
The Potency was inconclusive: 18.5 µM [inhibitor, single point].

For `Cn1c(SCC(=O)N/N=C/c2ccncc2)nc2ccccc21`, which Potency is on record?
The Potency was inconclusive: 18.5 µM [inhibitor, single point].

With `COCCNC(=O)CN1C(=O)c2cccc3cccc1c23` as the compound, how does the Potency read?
The Potency was inconclusive: 11.7 µM [inhibitor, single point].

Which Potency does the source give for `O=C(CN1CCCC1)Nc1ccc(S(=O)(=O)N2CCCCC2)cc1` here?
Its Potency is inconclusive: 9.28 µM [inhibitor, single point].

With `Cc1ccccc1CC1(CO)CCCN(C(=O)CCCN2CCCCC2=O)C1` (stereo not given) as the compound, how does the Potency read?
Its Potency is inconclusive: 18.5 µM [inhibitor, single point].

Which “activity change, negative = inhibition” value does the source give for `CCOC(=O)c1cnc(SCC(=O)Nc2ccc(N3CCOCC3)cc2)nc1N` here?
Its value is inactive: 6.19%.

Which Potency does the source give for `Cc1ccnc(NC(=O)c2ccc(Cl)c(S(=O)(=O)N3CCCC3)c2)c1` here?
The Potency was inconclusive: 18.5 µM [inhibitor, single point].

With `NC(=O)CC(NC(=O)c1ccc(Br)cc1)c1ccc(N2CCCCCC2)c([N+](=O)[O-])c1` (stereo not given) as the compound, how does the “activity change, negative = inhibition” value read?
Its value is inactive: 25.2%.

Which “activity change, negative = inhibition” value does the source give for `COCCn1c(SCC(=O)NCc2cccs2)nnc1-c1ccc(OC)cc1` here?
The value was inactive: 3.78%.

Which Potency does the source give for `CCCN1CCC(NC(=S)Nc2ccc([N+](=O)[O-])cc2)CC1` here?
The Potency was inconclusive: 18.5 µM [inhibitor, single point].

Which Potency does the source give for `CC(=O)N1N=C(c2ccc(Br)cc2)OC12CCCC2` here?
Its Potency is inconclusive: 0.0033 µM [inhibitor, full curve, poor fit].

With `NC(N)=N/N=C/c1ccc(Cl)cc1Cl` as the compound, how does the Potency read?
Its Potency is inconclusive: 16.5 µM [inhibitor, single point].

With `OC(CNC1CCCC1)COCCOc1ccc(Br)cc1` (stereo not given) as the compound, how does the Potency read?
Its Potency is inconclusive: 18.5 µM [inhibitor, single point].

With `COc1ccc(N2CCN(c3nc(=S)n(-c4ccccc4)c(C)c3C(C)=O)CC2)cc1` as the compound, how does the Potency read?
The Potency was inconclusive: 0.233 µM [inhibitor, partial curve, poor fit].

Which Potency does the source give for `COc1cc2nc(CN3CCN(S(=O)(=O)c4c(F)cccc4F)CC3)[nH]c(=O)c2cc1OC` here?
The Potency was inconclusive: 10.4 µM [inhibitor, partial curve, poor fit].

With `O=C(O)c1csc(N/N=C/c2ccc(Br)cc2)n1` as the compound, how does the Potency read?
The Potency was inconclusive: 10.4 µM [inhibitor, single point].

Which Potency does the source give for `Cc1[nH]c(=O)c(C#N)cc1-c1ccncc1` here?
The Potency was inconclusive: 10.7 µM [inhibitor, partial curve, poor fit].

Which Potency does the source give for `COc1cccc(C(=O)N(c2ccc(OC)cc2OC)C2C=CS(=O)(=O)C2)c1` (stereo not given) here?
The Potency was inconclusive: 2.33 µM [inhibitor, single point].

Which Potency does the source give for `Cc1ccc(NC(=O)c2cc([N+](=O)[O-])ccc2NCc2cccnc2)cc1` here?
The Potency was inconclusive: 2.62 µM [inhibitor, partial curve, poor fit].

Which Potency does the source give for `S=C(Nc1ccc(Cl)c(Cl)c1)NC1CCN(Cc2ccccc2)CC1` here?
The Potency was inconclusive: 14.7 µM [inhibitor, single point].

Which Potency does the source give for `COc1cccc(N2CCN(c3ncnc4c3[nH]c3ccccc34)CC2C)c1` (stereo not given) here?
The Potency was inconclusive: 8.28 µM [inhibitor, partial curve, poor fit].
